Results on one compound are retold here after patent US8592421B2, “Cyclic bioisosters of purine system derivatives and a pharmaceutical composition based thereon” (priority 2003, dated 2013).

The data set in a line: Morphine abstinence model: indicator enzymes ALT, AST, γ-GTP in blood plasma. The settings on record: control + Morphine (morphinized rats). How it is done: The experiments were carried out on rats in series of 7 animals on each compound according to the invention. Non-morphinized animal with not administered with compounds according to the invention were used as a control group. […] Then the rats were decapitated, the blood from somnolent arteries was collected in test tubes with solution EDTA as an anticoagulant, centrifuged at 1500 g for 15 minutes at 4° C.
To estimate possible hepatoprotective action of the compounds according to the invention under conditions of development of an oxidizing stress in the liver cells, effect of these compounds on the most important biochemical blood indexes, in particular, on the content in blood plasma of indicator enzyme of aspartateaminotransferase (AST), alanineaminotransferase (ALT), γ-glutamiletranspeptidase (γ-GTP) was investigated. The content of enzymes was estimated by their catalyzing activity in blood plasma.
The activity of AST, ALT and γ-GTP was determined by means of diagnostic sets DiaSys, Germany.

Each structure is given as a SMILES string.

Regarding `CN1CC[C@]23c4c5ccc(O)c4O[C@H]2[C@@H](O)C=C[C@H]3[C@H]1C5` [Morphine, morphine, reference compound], the “γ-GTP in blood plasma, Ci” value (control 6.261 ± 1.80) was found to be 16.80 ± 13.32 mE/l. Under “control 106.76 ± 111.35”, the “ALT in blood plasma, Ci” value was 116.12 ± 110.44 mE/l. In addition, the “AST in blood plasma, Ci” value (control 179.881 ± 11.94) amounted to 238.201 ± 14.71 mE/l.
